# This is one part of the list.
# Amino acid sequences for entries named in this document (tags omitted). A change or cut given only in a name is not applied to a line headed by its entry.
# UniProt P49454: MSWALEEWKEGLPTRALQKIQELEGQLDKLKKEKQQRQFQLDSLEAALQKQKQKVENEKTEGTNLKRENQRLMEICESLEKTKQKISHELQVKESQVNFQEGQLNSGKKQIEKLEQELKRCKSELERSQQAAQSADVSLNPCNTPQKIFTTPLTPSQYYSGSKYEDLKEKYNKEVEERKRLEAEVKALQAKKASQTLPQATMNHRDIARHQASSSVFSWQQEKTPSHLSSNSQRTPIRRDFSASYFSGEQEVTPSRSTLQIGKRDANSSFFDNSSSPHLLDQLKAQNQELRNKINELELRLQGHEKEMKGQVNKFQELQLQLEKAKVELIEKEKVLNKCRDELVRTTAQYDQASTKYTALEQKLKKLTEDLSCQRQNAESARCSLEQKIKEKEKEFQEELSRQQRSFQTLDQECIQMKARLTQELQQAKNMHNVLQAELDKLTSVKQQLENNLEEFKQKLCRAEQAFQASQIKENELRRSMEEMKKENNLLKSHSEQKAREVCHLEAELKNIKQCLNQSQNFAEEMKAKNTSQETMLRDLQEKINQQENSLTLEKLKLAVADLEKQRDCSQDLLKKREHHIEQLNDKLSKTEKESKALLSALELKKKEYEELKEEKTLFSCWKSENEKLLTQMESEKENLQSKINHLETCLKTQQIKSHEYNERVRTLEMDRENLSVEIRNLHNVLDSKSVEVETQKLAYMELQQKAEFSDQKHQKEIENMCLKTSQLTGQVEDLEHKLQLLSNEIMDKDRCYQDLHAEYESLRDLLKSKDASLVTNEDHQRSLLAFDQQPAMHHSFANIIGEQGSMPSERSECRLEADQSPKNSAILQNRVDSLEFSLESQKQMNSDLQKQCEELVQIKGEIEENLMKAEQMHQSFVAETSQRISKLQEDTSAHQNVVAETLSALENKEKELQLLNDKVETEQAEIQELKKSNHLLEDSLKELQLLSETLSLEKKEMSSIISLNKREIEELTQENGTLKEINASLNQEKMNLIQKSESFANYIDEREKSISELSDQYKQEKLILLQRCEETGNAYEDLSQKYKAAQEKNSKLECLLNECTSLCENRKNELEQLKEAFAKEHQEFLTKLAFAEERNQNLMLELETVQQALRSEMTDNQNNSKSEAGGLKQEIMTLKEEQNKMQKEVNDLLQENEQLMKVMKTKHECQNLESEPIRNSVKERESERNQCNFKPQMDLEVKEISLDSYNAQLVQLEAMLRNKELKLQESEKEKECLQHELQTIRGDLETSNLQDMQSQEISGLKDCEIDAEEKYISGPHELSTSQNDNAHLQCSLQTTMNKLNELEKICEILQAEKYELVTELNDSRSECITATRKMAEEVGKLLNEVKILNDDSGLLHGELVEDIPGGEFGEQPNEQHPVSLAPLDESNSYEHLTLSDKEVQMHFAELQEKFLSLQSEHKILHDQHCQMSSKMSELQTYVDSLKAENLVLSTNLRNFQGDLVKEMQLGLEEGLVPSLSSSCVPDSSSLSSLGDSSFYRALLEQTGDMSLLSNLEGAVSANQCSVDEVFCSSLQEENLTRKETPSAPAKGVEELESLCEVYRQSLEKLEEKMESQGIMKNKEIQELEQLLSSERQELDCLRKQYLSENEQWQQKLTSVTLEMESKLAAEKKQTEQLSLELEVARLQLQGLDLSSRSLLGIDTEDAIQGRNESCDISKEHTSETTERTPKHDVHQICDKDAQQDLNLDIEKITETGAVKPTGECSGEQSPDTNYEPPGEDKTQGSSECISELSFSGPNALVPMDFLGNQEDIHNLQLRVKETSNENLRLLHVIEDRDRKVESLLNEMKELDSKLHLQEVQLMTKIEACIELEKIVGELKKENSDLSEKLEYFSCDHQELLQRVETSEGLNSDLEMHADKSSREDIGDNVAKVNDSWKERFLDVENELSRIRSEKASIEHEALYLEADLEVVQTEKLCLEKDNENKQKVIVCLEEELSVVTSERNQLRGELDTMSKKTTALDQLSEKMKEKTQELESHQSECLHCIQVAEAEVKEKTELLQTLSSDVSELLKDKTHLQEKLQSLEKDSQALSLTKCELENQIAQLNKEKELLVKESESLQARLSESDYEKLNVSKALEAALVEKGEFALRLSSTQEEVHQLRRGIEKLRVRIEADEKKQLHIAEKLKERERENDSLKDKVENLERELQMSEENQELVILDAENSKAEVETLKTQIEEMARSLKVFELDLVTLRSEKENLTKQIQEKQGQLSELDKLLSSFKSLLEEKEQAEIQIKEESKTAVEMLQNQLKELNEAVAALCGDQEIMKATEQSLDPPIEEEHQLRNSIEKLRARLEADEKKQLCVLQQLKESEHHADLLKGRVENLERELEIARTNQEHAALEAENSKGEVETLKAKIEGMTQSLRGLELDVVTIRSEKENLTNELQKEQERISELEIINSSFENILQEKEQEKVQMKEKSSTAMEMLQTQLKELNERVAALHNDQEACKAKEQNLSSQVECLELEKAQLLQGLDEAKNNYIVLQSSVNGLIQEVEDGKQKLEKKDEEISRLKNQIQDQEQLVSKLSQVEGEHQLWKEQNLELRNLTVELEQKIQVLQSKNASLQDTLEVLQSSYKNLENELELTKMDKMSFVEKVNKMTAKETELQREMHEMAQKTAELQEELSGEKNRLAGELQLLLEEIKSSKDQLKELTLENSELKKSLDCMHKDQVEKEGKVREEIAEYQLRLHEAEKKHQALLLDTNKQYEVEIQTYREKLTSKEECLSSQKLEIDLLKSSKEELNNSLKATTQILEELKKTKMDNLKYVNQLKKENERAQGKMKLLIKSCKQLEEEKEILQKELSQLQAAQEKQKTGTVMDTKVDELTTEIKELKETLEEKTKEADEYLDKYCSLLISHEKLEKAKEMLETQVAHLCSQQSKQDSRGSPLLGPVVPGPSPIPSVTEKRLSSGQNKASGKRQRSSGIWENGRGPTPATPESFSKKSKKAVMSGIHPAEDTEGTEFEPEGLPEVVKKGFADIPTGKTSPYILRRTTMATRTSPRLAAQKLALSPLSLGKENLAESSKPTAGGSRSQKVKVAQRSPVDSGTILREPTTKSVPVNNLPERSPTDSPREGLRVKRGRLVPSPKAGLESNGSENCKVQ
# UniProt Q99832: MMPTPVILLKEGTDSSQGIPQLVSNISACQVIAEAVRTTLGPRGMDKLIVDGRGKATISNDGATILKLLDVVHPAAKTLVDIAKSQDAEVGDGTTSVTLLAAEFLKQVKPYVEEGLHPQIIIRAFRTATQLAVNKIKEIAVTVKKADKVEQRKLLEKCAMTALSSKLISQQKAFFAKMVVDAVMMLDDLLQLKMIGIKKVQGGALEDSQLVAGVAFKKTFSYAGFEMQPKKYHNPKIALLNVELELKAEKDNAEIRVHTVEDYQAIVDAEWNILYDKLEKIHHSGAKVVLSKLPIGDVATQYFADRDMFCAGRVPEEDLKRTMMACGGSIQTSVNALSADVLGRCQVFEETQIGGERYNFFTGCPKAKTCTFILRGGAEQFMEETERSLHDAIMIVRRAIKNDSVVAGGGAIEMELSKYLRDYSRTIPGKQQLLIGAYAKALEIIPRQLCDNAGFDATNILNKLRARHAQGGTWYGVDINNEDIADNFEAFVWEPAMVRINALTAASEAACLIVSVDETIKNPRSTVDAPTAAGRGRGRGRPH
# UniProt Q96SN8: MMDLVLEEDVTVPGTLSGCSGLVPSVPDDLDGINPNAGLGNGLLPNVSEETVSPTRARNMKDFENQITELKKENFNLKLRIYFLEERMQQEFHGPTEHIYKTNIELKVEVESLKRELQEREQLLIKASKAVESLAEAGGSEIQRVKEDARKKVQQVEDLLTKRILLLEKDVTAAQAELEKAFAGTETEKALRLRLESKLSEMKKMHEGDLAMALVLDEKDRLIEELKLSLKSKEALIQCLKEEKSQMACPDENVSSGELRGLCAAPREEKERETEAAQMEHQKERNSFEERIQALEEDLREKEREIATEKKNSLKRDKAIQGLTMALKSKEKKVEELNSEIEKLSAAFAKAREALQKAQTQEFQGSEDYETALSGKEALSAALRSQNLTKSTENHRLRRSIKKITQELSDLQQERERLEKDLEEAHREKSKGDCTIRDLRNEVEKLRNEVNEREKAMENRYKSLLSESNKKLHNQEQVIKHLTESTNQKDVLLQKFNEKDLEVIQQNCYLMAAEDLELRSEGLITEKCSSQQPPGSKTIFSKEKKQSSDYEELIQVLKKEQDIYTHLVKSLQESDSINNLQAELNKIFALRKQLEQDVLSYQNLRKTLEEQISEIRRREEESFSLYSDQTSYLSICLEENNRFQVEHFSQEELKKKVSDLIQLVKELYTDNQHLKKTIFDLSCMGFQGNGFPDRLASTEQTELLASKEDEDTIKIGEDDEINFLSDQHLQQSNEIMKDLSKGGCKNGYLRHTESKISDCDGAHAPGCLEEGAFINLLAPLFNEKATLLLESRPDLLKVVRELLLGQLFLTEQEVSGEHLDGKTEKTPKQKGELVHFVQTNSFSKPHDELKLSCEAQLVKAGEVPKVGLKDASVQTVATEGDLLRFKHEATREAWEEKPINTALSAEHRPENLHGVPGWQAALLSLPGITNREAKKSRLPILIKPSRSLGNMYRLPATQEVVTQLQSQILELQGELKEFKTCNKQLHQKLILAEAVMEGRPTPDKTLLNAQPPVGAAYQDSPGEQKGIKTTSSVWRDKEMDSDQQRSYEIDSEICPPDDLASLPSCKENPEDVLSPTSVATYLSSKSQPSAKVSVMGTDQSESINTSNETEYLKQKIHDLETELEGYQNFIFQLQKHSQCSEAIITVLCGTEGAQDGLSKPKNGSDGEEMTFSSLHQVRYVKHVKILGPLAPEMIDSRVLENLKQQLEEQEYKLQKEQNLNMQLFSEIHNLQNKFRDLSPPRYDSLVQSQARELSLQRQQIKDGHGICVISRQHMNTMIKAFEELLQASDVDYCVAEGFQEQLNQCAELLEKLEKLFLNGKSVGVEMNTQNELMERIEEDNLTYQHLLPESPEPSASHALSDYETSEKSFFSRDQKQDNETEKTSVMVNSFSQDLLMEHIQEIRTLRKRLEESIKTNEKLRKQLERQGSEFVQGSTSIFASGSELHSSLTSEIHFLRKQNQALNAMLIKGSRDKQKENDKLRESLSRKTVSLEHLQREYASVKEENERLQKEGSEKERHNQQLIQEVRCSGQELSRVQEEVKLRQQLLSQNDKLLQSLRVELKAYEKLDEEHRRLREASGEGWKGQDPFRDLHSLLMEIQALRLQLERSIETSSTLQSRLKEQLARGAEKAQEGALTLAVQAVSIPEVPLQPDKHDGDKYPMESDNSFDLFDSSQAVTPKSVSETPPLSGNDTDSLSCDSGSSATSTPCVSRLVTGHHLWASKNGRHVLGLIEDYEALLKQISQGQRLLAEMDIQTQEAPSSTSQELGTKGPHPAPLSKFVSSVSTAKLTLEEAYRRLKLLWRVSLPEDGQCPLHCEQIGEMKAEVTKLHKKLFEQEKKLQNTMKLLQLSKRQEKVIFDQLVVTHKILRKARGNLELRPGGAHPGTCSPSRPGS
# UniProt Q9Y6K0: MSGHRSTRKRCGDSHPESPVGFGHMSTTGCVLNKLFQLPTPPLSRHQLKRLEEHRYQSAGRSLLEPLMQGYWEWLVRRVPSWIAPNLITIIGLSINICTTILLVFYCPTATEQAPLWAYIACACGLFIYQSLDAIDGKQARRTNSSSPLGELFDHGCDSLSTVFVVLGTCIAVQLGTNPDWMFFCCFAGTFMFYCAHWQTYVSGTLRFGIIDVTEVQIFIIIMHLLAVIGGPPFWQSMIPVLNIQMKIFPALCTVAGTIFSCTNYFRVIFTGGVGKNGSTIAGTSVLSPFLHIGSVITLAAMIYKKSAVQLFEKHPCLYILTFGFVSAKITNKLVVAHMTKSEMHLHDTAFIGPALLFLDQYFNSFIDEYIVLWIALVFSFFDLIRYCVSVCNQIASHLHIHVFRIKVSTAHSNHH
# UniProt O95319: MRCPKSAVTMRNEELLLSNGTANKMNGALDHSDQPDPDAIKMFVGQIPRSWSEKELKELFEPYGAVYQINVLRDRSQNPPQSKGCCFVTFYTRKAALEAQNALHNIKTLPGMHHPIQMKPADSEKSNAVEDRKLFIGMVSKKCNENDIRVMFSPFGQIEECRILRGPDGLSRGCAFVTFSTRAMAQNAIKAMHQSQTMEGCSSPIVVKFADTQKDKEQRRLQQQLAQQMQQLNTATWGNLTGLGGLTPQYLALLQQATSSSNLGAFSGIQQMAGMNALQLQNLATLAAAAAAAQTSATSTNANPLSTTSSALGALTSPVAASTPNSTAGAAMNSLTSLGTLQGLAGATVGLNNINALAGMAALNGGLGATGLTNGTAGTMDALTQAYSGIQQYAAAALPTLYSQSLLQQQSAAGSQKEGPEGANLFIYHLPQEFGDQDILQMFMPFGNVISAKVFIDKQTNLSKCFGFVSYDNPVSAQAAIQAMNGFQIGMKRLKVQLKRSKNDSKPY
# Compound: CC1Cc2ccccc2N1C(=O)C1CCCN(C1)C(=O)CCl (mixture of isomers) [TRIM25 ligand 11 (diastereomer mixture)]
# Test: probe-labelled cysteine peptide fold change vs DMSO (competition) (log2 fold change); higher = less target engagement (more negative = stronger competition)
# Settings: 10 µM; THP-1; incubation time: 4 h
# 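Note: competitive chemoproteomic profiling in live THP-1 cells with an iodoacetamide desthiobiotin (IA-DTB) probe, comparing probe-labelled peptide intensities in compound-treated cells against DMSO-treated controls.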
row,Target,probe-labelled cysteine peptide fold change
1,CD40_P25942_116+119_GTSETDTICTCEEGWHCTSEACESCVLHR (UniProt P25942),-0.211
2,CEP350_Q5VT06_211_FLNDRPAIDALQNSECLIR (UniProt Q5VT06),-0.138
3,CCT5_P48643_253_IAILTCPFEPPKPK (UniProt P48643),-0.0215
4,CEP250_Q9BV73_630_VGLNQQLLQLEEENQSVCSR (UniProt Q9BV73),-0.268
5,CENPF_P49454_752_CYQDLHAEYESLR (UniProt P49454),-0.0639
6,CCT4_P50991_252_IGLIQFCLSAPK (UniProt P50991),-0.143
7,CCT7_Q99832_29_EGTDSSQGIPQLVSNISACQVIAEAVR (UniProt Q99832),0.000628
8,CDCA2_Q69YH5_315_SPATPACR (UniProt Q69YH5),0.112
9,CEP152_O94986_1019_ETELQTCLDQSR (UniProt O94986),-0.00967
10,CEP85_Q6P2H3_527_VTELESLLEETQAICR (UniProt Q6P2H3),0.0472
11,CENPF_P49454_621_TLFSCWK (UniProt P49454),0.115
12,CELF1_Q92879_150_GCAFVTFTTR (UniProt Q92879),0.0515
13,CEP350_Q5VT06_3083_VDHILVQELHEEEAQWVNYDEDELCVK (UniProt Q5VT06),0.00893
14,CDK5RAP2_Q96SN8_434_SKGDCTIR (UniProt Q96SN8),-0.0751
15,CCT7_Q99832_310_LPIGDVATQYFADRDMFCAGR (UniProt Q99832),-0.261
16,CEP68_Q76N32_465_RPTCTESR (UniProt Q76N32),-0.0384
17,CDK5RAP3_Q96JB5_68_INAAIQDMPESEEIAQLLSGSYIHYFHCLR (UniProt Q96JB5),0.161
18,CCT8_P50990_347_LTPPVLEEMGHCDSVYLSEVGDTQVVVFKHEKEDGAISTIVLR (UniProt P50990),-0.525
19,CDC45_O75419_267_NEDEENTLSVDCTR (UniProt O75419),0.077
20,CDK5RAP2_Q96SN8_1811_VSLPEDGQCPLHCEQIGEMK (UniProt Q96SN8),0.00278
21,CEPT1_Q9Y6K0_11+30_CGDSHPESPVGFGHMSTTGCVLNK (UniProt Q9Y6K0),0.118
22,CELF2_O95319_201_AMHQSQTMEGCSSPIVVK (UniProt O95319),0.079

# For convenience, some entries already given:
row,Target,probe-labelled cysteine peptide fold change
19,CDC45_O75419_267_NEDEENTLSVDCTR (UniProt O75419),0.077
20,CDK5RAP2_Q96SN8_1811_VSLPEDGQCPLHCEQIGEMK (UniProt Q96SN8),0.00278
21,CEPT1_Q9Y6K0_11+30_CGDSHPESPVGFGHMSTTGCVLNK (UniProt Q9Y6K0),0.118
22,CELF2_O95319_201_AMHQSQTMEGCSSPIVVK (UniProt O95319),0.079

# — the supplement of paper PMC12067093, “Discovery and optimisation of a covalent ligand for TRIM25 and its application to targeted protein ubiquitination” (Chemical Science, 2025)
